# The whole screen tested about 390,000 compounds, of which about 610 (0.16%) were called active. The inconclusive results got no clear call from the source; some entries with a clear call stand among them for comparison. The call rests on the fitted dose curve; in most records, active means well fitted inhibition curve with a large enough effect; inconclusive means small, poorly fitted or top-dose-only effect, or effect the other way, or another doubt; inactive means no such curve, though single readings can be large or run the other way. Potencies of inconclusive entries are doubtful fits and often do not repeat.
# Assay: Nrf2 qHTS screen for inhibitors: counterscreen for cytotoxicity
# Details: A549 ARE-Fluc cells, CellTiter-Fluor viability, 18-24 h; series mostly up to 46 µM
# Method in brief: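 Cytotoxicity counterscreen: CellTiter-Fluor fluorescence was measured in A549 ARE_Fluc cells after 18-24 h of compound exposure in a concentration series. The subsequent BugLite luminescent read reports ARE-luciferase activity.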
# Potency means the concentration at half of the fitted maximal effect.
row,Compound,Potency
1,CC(C)c1ccc(-c2csc(NC(=O)c3cccs3)c2C(=O)O)cc1,"inconclusive: 25.9 µM [falling, partial curve, poor fit]"
2,CNC(=O)c1cc2c(=O)n3cc(C)ccc3nc2n(C(C)C)c1=N,"inconclusive: 16.4 µM [activator, partial curve]"
3,Cc1cccc(N2CCN(S(=O)(=O)c3ccc4[nH]c(=O)ccc4c3)CC2)c1C,inactive
4,Cc1ccc(S(=O)(=O)c2nc(S(C)(=O)=O)sc2N2CCCCCC2)cc1,inactive
5,CCc1ccc(N2CC(C(=O)N/N=C/c3cc([N+](=O)[O-])ccc3O)CC2=O)cc1 (configuration not stated),"inconclusive: 23.1 µM [falling, single point]"
6,CC(C)C[C@H]1CN=C(Nc2ccccc2)N1CCCC1CCCC1,inactive
7,O=C(Nc1ccc(F)cc1F)c1ccc2c(c1)OCCO2,"inconclusive: 23.1 µM [falling, single point]"
8,CCc1ccc(OCC(=O)Nc2ccc(S(=O)(=O)N3CCCC3)cc2)c(Br)c1,"inconclusive: 23.1 µM [falling, partial curve, poor fit]"
9,O=C1/C(=C/c2cccs2)N=C(c2cccs2)N1Nc1ccccc1,"inconclusive: 11.6 µM [falling, partial curve, poor fit]"
10,CCCCNCC(=O)Nc1ccc(NC(=O)CNCCCC)cc1,"inconclusive: 25.9 µM [falling, single point]"
11,O=S(=O)(NC1CCCC1)c1ccc(S(=O)(=O)N2CCc3ccccc32)cc1,"inconclusive: 16.4 µM [falling, partial curve, poor fit]"
12,O=C(Nc1ccc2nc(-c3ccco3)c(-c3ccco3)nc2c1)N1CCN(c2ccccn2)CC1,"inconclusive: 18.4 µM [falling, single point]"
13,COc1ccc(-c2cc(=O)n(-c3ccc([N+](=O)[O-])cc3)[nH]2)cc1,"inconclusive: 29.1 µM [falling, single point]"
14,CCc1nnc(NC(=O)CSc2nccn2-c2cccc(C)c2)s1,inactive
15,COc1cccc(CN(C)C(=O)c2cc(COc3c(F)cccc3F)on2)c1,inactive
16,Cc1ccc(-n2c(O)c(/C=N/Nc3ccc(S(=O)(=O)N4CCOCC4)cc3[N+](=O)[O-])c3ccccc3c2=O)c(C)c1,"inconclusive: 29.1 µM [falling, single point]"
17,COc1ccc(C(=O)C2CCN(C(=S)NCCc3ccc(OC)c(OC)c3)CC2)cc1,inactive
18,COc1ccc(-c2nnc(NC(=O)C3CCCO3)s2)cc1 (configuration not stated),inactive
19,CCc1ccc(NC(=O)CSC2=C(C#N)C(c3ccc4c(c3)OCO4)CC(=O)N2)cc1 (configuration not stated),"inconclusive: 6.51 µM [activator, single point]"
20,C[C@@H]1CN([C@@H](C)CO)C(=O)c2cc(NC(=O)Nc3ccc(F)cc3)ccc2O[C@@H]1CN(C)Cc1ccc(Oc2ccccc2)cc1,"inconclusive: 18.4 µM [falling, single point]"
21,Cc1c(C=O)c2ccccn2c1C(=O)c1ccncc1,"inconclusive: 15.8 µM [falling, single point]"
22,COc1ccc(Cn2c(O)c(C=Nc3ccc(O)cc3)c3ccccc3c2=O)cc1,"inconclusive: 20.6 µM [falling, single point]"
23,Cc1ccc(C)c(S(=O)(=O)c2nnn3c2nc(Nc2ccc(F)c(Cl)c2)c2sccc23)c1,"inconclusive: 29.1 µM [falling, single point]"

row,Compound,Potency
1,CCN1C(=O)C(CC(=O)Nc2ccc(F)cc2)N(CCCN2CCN(c3ccc(F)cc3)CC2)C1=S (configuration not stated),"inconclusive: 14.6 µM [falling, partial curve, poor fit]"
2,CC(C)C(=O)Nc1cccc(NC(=S)NC(=O)c2ccccc2Cl)c1,inactive
3,O=C(NC(NC(=O)c1ccccc1)c1ccccc1)c1ccccc1,"inconclusive: 29.1 µM [falling, single point]"
4,Cc1ccccc1C(=O)NC(=S)NCCc1ccccc1,inactive
5,CC(=O)N1CCC2(CC1)OC(=O)C(C)=C2C(=O)Nc1ccccc1C(F)(F)F,inactive
6,COc1cc(C(=O)N2CCc3c([nH]c4ccccc34)C2c2ccccc2)cc(OC)c1OC (configuration not stated),"inconclusive: 13 µM [falling, partial curve]"
7,CCOC(=O)C1CCC(CN(Cc2c(Cl)cccc2Cl)S(=O)(=O)c2ccc(F)cc2)CC1 (configuration not stated),inactive
8,Cc1ccc2nc(C)c(Cl)c(=O)n2c1,"inconclusive: 16.4 µM [activator, partial curve, poor fit]"
9,O=C(CN1CCN(c2ncc(C(F)(F)F)cc2Cl)CC1)NCCNc1ncc(C(F)(F)F)cc1Cl,"inconclusive: 29.1 µM [falling, single point]"
10,Cc1ccc(S(=O)(=O)NCCC(=O)OCC(=O)N2CCCC2=O)cc1,inactive
11,CCN(C(=O)CSc1nnc(Nc2ccccc2C)s1)C1CCS(=O)(=O)C1 (configuration not stated),inactive
12,CCOc1ccc(/C(O)=C2/C(=O)C(=O)N(c3nc(C)c(C)s3)C2c2ccco2)cc1 (configuration not stated),"inconclusive: 29.1 µM [falling, partial curve, poor fit]"
13,O=C(COc1ccc([N+](=O)[O-])cc1Cl)N1CCc2ccccc21,inactive
14,CCCOC(=O)c1cccc(Nc2nc(-c3cccnc3)nc3ccccc23)c1,inactive
15,COc1cc(OC)c(OC)cc1/C=C1\CC(C)C/C(=C\c2cc(OC)c(OC)cc2OC)C1=O (configuration not stated),"inconclusive: 20.6 µM [falling, single point]"
16,Cc1cnc(NC(=O)C2CC(=O)N(c3cccc(Cl)c3)C2)s1 (configuration not stated),"inconclusive: 1.84 µM [falling, full curve, poor fit]"
17,Cc1ccc2nc(NC(=O)c3cc(=O)c4cc(Cl)ccc4o3)sc2c1,inactive
18,c1ccc2c(-c3nc(-c4ccncc4)no3)cccc2c1,inactive
19,CC1CCN(Cc2c(C(=O)N/N=C/c3ccc(OC(C)C)cc3)nnn2-c2nonc2N)CC1,"inconclusive: 29.1 µM [falling, single point]"
20,CCOc1ccc(Br)cc1CNc1ccc2c(c1)OCCO2,inactive
21,CCC(C)[C@H](NC(=O)[C@@H]1Cc2c([nH]c3ccccc23)C2c3ccccc3C(=O)N21)C(=O)N1CCC[C@@H]1C(=O)O (some centres not stated),inactive
22,O=S(=O)(CCN1CCCCC1)Oc1ccc(Cl)cc1Cl,inactive
23,COCCNC(=S)N1CCc2cc(OC)c(OC)cc2C1COc1ccc(F)cc1 (configuration not stated),inactive

row,Compound,Potency
1,CC(=O)Nc1ccc(S(=O)(=O)N2CCSc3ccccc32)cc1,"inconclusive: 2.59 µM [falling, partial curve, poor fit]"
2,COc1cc2c(cc1NC(=O)CSc1nnc(Cc3cccs3)n1Cc1ccco1)oc1ccccc12,"inconclusive: 16.4 µM [falling, partial curve, poor fit]"
3,Cc1ccc2c(C)c(C(=O)N(Cc3ccc(Cl)cc3)C3CCS(=O)(=O)C3)oc2c1 (configuration not stated),"inconclusive: 29.1 µM [falling, single point]"
4,Cc1nc2ccc(NS(=O)(=O)c3ccc(F)c(F)c3)cc2s1,inactive
5,O=C(N/N=C/c1c(O)n(-c2ccc(Cl)cn2)c(=O)c2ccccc12)c1ccncc1,"inconclusive: 25.9 µM [falling, partial curve, poor fit]"
6,COc1cc(/C=C/c2[nH]c(=O)[nH]c(=O)c2[N+](=O)[O-])cc(OC)c1O,"inconclusive: 9.2 µM [falling, partial curve, poor fit]"
7,CN(C)c1ccc(C(CNC(=O)c2ccc(C(C)(C)C)cc2)N2CCOCC2)cc1 (configuration not stated),inactive
8,O=C(Cc1ccc(Cl)c(Cl)c1)Nc1ccc(SC(F)F)cc1,"inconclusive: 29.1 µM [falling, single point]"
9,Cc1ccc(C2=N/C(=C\N3CCCCC3)C(=O)O2)cc1,"inconclusive: 25.9 µM [activator, partial curve, poor fit]"
10,CC1CCCN(c2ccc(/C=C(\C#N)c3nn(-c4ccccc4)c(N)c3C#N)cc2[N+](=O)[O-])C1 (configuration not stated),"inconclusive: 29.1 µM [falling, single point]"
11,O=C1NC(=S)SC1=Cc1ccc(Cl)cc1,"inconclusive: 23.1 µM [falling, single point]"
12,C#CCn1c(=NC(=O)c2ccc(S(=O)(=O)N3CCc4ccccc4C3)cc2)sc2cc(S(N)(=O)=O)ccc21,active: 5.17 µM
13,C=CCSc1nc2sc3c(c2c(=O)n1CC=C)CCc1ccccc1-3,"inconclusive: 29.1 µM [activator, partial curve, poor fit]"
14,O=C1CN(C(=O)Cc2ccc(F)cc2)C(c2ccccc2)c2cc(Cl)ccc2N1 (configuration not stated),inactive
15,COc1ccc(C(=O)Cn2nnc(-c3ccccc3NC(=O)c3ccco3)n2)cc1,"inconclusive: 23.1 µM [falling, partial curve]"
16,CC(=O)N1CCN(c2csc3ccc(F)cc3c2=O)CC1,"inconclusive: 23.1 µM [falling, partial curve, poor fit]"
17,O=C(COC(=O)c1ccc2c(c1)S(=O)(=O)c1ccccc1C2=O)NC1CC1,inactive
18,CN(c1nc2ccccc2n2c(-c3ccco3)nnc12)S(=O)(=O)c1ccccc1,"inconclusive: 29.1 µM [activator, single point]"
19,COC(=O)C(=O)C1CCc2c(Cl)cc(OC)c(OC)c2C1=O (configuration not stated),inactive
20,COc1ccc(S(=O)(=O)Nc2ccc(C)cc2)cc1N(C)S(=O)(=O)c1ccc(Cl)cc1,"inconclusive: 29.1 µM [falling, single point]"
21,O=C(C[C@H]1C[C@H](C(=O)N2CCCCC2)[C@@]2(CCc3ccccc3)c3[nH]c4ccc(Cl)cc4c3CCN2C1=O)NCCCn1ccnc1,"inconclusive: 29.1 µM [falling, single point]"

# A few values from the results shown.
# Value for COc1ccc(S(=O)(=O)Nc2ccc(C)cc2)cc1N(C)S(=O)(=O)c1ccc(Cl)cc1 under Potency: inconclusive: 29.1 µM [falling, single point]
# Value for CC1CCCN(c2ccc(/C=C(\C#N)c3nn(-c4ccccc4)c(N)c3C#N)cc2[N+](=O)[O-])C1 (configuration not stated) under Potency: inconclusive: 29.1 µM [falling, single point]
